{"source": "PubChem BioAssay AID1224828 (NIAID, 2016)", "test": "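Regulators linking TLR4 signalling to p65 nuclear translocation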 (primary screen)", "cell system": "mouse RAW264.7 G9 macrophage reporter cells (GFP-p65, Tnf promoter-mCherry)", "reagent": "siRNA pool against mouse genes, 100 nM", "time to read-out": "2 days siRNA transfection, then 40 min LPS before fixation", "treatment": "LPS (Salmonella minnesota R595) at 10 ng/ml", "measurement": "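Imaged p65 nuclear translocation ratio, normalised to the plate median, converted to robust z-scores and averaged across two replicates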", "direction": "p65 translocation robust z-score: higher = more nuclear NF-kappaB p65 after LPS than the plate median; nuclear/cytoplasmic p65 ratio: higher = more nuclear NF-kappaB p65", "active means": "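Active if robust z is above 3.3 (negative regulators) or below -1.56, the Tlr4 control median (positive regulators); activity score 50 or more; control wells not called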", "calls": "active = hit (p65 shift raised or lowered); inactive = no clear change", "note": "The whole screen tested about 17,000 reagents; shown is a part drawn at random. In the full data, 762 (4.5%) were called active. 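Active calls include both raised and lowered p65 entry, mostly lowered; wells with fewer than 50 cells lack a z-score.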 The raw values are shown without normalisation. Entries without a mark were called inactive. Reagent sequences are not shown."}
{"Gene": "Gbp9", "nuclear/cytoplasmic p65 ratio, rep 1": 1.22, "nuclear/cytoplasmic p65 ratio, rep 2": 1.15, "low cell count flag": "fewer than 50 cells per well; well left out of scoring"}
{"Gene": "Zfp322a", "p65 translocation robust z-score": 0.32, "nuclear/cytoplasmic p65 ratio, rep 1": 1.41, "nuclear/cytoplasmic p65 ratio, rep 2": 1.33, "low cell count flag": "enough cells to score"}
{"Gene": "Ptk7", "p65 translocation robust z-score": 1.31, "nuclear/cytoplasmic p65 ratio, rep 1": 1.81, "nuclear/cytoplasmic p65 ratio, rep 2": 1.61, "low cell count flag": "enough cells to score"}
{"Gene": "Lrfn1", "nuclear/cytoplasmic p65 ratio, rep 1": 1.7, "nuclear/cytoplasmic p65 ratio, rep 2": 1.48, "low cell count flag": "fewer than 50 cells per well; well left out of scoring"}
{"Gene": "Myc", "p65 translocation robust z-score": 0.15, "nuclear/cytoplasmic p65 ratio, rep 1": 1.47, "nuclear/cytoplasmic p65 ratio, rep 2": 1.36, "low cell count flag": "enough cells to score"}
{"Gene": "Zfp62", "p65 translocation robust z-score": -0.35, "nuclear/cytoplasmic p65 ratio, rep 1": 1.38, "nuclear/cytoplasmic p65 ratio, rep 2": 1.2, "low cell count flag": "enough cells to score"}
{"Gene": "Ubqln4", "p65 translocation robust z-score": -0.29, "nuclear/cytoplasmic p65 ratio, rep 1": 1.59, "nuclear/cytoplasmic p65 ratio, rep 2": 1.61, "low cell count flag": "enough cells to score"}
{"Gene": "Ythdf1", "p65 translocation robust z-score": -0.14, "nuclear/cytoplasmic p65 ratio, rep 1": 1.4, "nuclear/cytoplasmic p65 ratio, rep 2": 1.24, "low cell count flag": "enough cells to score"}
{"Gene": "Cnot3", "p65 translocation robust z-score": 2.64, "nuclear/cytoplasmic p65 ratio, rep 1": 1.85, "nuclear/cytoplasmic p65 ratio, rep 2": 1.7, "low cell count flag": "enough cells to score"}
{"Gene": "Gp9", "p65 translocation robust z-score": 1.82, "nuclear/cytoplasmic p65 ratio, rep 1": 1.74, "nuclear/cytoplasmic p65 ratio, rep 2": 1.54, "low cell count flag": "enough cells to score"}
{"Gene": "Cnga1", "p65 translocation robust z-score": 0.65, "nuclear/cytoplasmic p65 ratio, rep 1": 1.59, "nuclear/cytoplasmic p65 ratio, rep 2": 1.46, "low cell count flag": "enough cells to score"}
{"Gene": "Or10ag52", "p65 translocation robust z-score": -1.26, "nuclear/cytoplasmic p65 ratio, rep 1": 1.43, "nuclear/cytoplasmic p65 ratio, rep 2": 1.42, "low cell count flag": "enough cells to score"}
